## Primary screen of a compound library

The values are deposited in ChEMBL (CHEMBL3988442, “University of Dundee, Small-Polar-MMV Screening Library” (2021)).

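Whole-cell assay for inhibitors of Mycobacterium tuberculosis growth, labelled Cornell in the record; the read-out is not stated. The concentration is filed as 10 mM, unlikely as a test dose, so the dose is not known. Higher means stronger inhibition (inferred from two other growth screens of the library). Size under these conditions: about 53,000 compounds, about 900 of them at 50% or above in at least one test.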

Results are given as percent effect.
The record does not define 0% and 100%; most values in the screen are far below 50% and negative numbers occur (in some assays of this library far below -100).
The compounds are a random part of those screened.

| compound | Percent Effect |
|---|---|
| `[H][C@]12CCC(=O)N(c3ccccc3)[C@@]1([H])CCN2C(=O)c1cc(C)on1` | 0.08428% |
| `[H][C@@]12CCN(Cc3ccccn3)C[C@@]1([H])O[C@H](C)C2` | -31.08% |
| `COCc1ncc(CN2CCC(Oc3ccccc3C)CC2)cn1` | -1.948% |
| `c1ccc(Cn2cncn2)c(CNCC2CNc3ccnn3C2)c1` (configuration not stated) | 15.81% |
| `COCCN(Cc1cnn(C)c1)CC1CCOC1` (configuration not stated) | 22.9% |
| `Cc1ccc(-c2nc(CNS(=O)(=O)N(C)C)[nH]c2-c2ccccn2)cc1` | -4.789% |
| `CC(C)N(Cc1ccc(C(F)(F)F)nc1)Cc1cnn(C)c1` | 13.81% |
| `Cc1ccccc1CSc1nc(N)cc(N2C[C@H](O)[C@@H](N(C)C)C2)n1` | 14.55% |
| `CCOCCSc1nnc(-c2cn(CC)nc2OCC)n1C` | 21.52% |
| `Cc1cc(C(=O)NC(C)c2nnn[nH]2)c2cccc(C)c2n1` (configuration not stated) | -17.6% |
| `CNc1ncc(CN(C)C(=O)c2cccc(-n3cnnc3)c2)cn1` | -31.6% |
| `Cc1cnn(CC2CCN(CC(O)CN3CCC(C)CC3)CC2)c1` (configuration not stated) | 29.38% |
| `Cn1c(Cn2cccn2)nnc1C1CCN(Cc2cccnc2)CC1` | -9.114% |
| `NC(=O)C1CCN(C(=O)C2SCCc3sccc32)CC1` (configuration not stated) | -11.45% |
| `Cn1nnc(NCc2ccc(-c3ccc(Cl)cc3)o2)n1` | 60.16% |
| `O=C(NCCn1cnnc1C1CC1)c1c(O)cc(F)cc1F` | -13.58% |
| `N#Cc1ccc(OC2CCN(C(=O)c3ccccc3Cl)CC2)nc1` | 26.49% |
| `O=C(c1cc2c(s1)CCN2C(=O)C1CC1)N1CCCC1` | 9.923% |
| `O=C1NCCCc2c1oc1ccc(O)c(CN3CCOCC3)c21` | -41.27% |
| `CC(=O)N(C)CC(=O)Nc1cccc(N2CCN(CC3CC3)CC2)c1` | 11.33% |
| `CCn1ccnc1CN1CCOC(CNc2cccnn2)C1` (configuration not stated) | 14.66% |
| `CCCOCC(=O)NS(=O)(=O)c1ccc2c(c1)OCCO2` | -84.8% |
| `CCC(=O)N1CCC2(CCC(N3CCCC3)c3ccccc32)CC1.O=C(O)C(F)(F)F` (configuration not stated) | 13.72% |
| `Cc1cc(C2CCCN(CCS(=O)(=O)c3ccccc3)C2)n[nH]1` (configuration not stated) | 35.53% |
| `CC1(C)CNC(=O)c2nc(CCN3CCCCC3CO)[nH]c2C1` (configuration not stated) | -16.15% |
| `O=C(c1cocn1)N1CCC2(CC1)CC(OCC1CC1)CO2` (configuration not stated) | 1.868% |
| `Cc1ccc(C(=O)N2CCCN(C)c3ccc(F)cc32)o1` | 40.3% |
| `Cc1ccc(CNC(=O)NC2CCCN(c3ncccn3)C2)cn1` (configuration not stated) | -45.36% |
| `Cc1nc(C(=O)N2CCC(c3cc(CCO)n(C)n3)C2)co1` (configuration not stated) | -35.21% |
| `O=C(O)C(F)(F)F.O=C(O)C(F)(F)F.[H][C@@]12CCN(c3ncc(F)cn3)C[C@]1([H])O[C@H](C(=O)NCc1cccnc1)C2` | 16.81% |
| `Cc1ccc(-n2nnc(CC(=O)N3CCOCC3)c2C)cc1` | -48.64% |
| `O=C(O)C(F)(F)F.[H][C@@]12CCCO[C@]1([H])[C@@H](OCC(=O)N(C)C)CN2Cc1ccccc1` | -62.78% |
| `CC(=O)NCCNC(=O)NCc1ccc(Br)cc1Cl` | -4.956% |
| `Cc1ccc(=O)n(CC2(O)CCN(Cc3cnc(C)nc3)CC2)n1` | -14.01% |
| `[H][C@@]12CCN(C(=O)c3c(C)noc3C)C[C@@]1([H])O[C@@H](c1ccnc(C)n1)C2` | 12.95% |
| `CNC(=O)c1ccc(Cn2ccnc2S(C)(=O)=O)cc1` | -10.82% |
| `CCNC(=O)C1CCN(c2cc(-c3ccccc3)nc3cc(C)nn23)C1` (configuration not stated) | 12.3% |
| `CS(=O)(=O)c1nnc(NC(=O)CCc2cc(F)ccc2F)[nH]1` | 24.62% |
| `Cc1cccc(C(Nc2nccc(-c3ccc(C)nc3C)n2)C2CC2)n1` (configuration not stated) | 1.319% |
| `Cc1nc(S(=O)(=O)CCn2cccn2)n(CC2CCCO2)c1C` (configuration not stated) | 24.55% |
| `FC(F)(F)c1ccnc(N2CCCN(C3CCOCC3)CC2)c1` | 43.94% |
| `Cc1csc2c(N3CCC(NCCCc4ccncc4)CC3)ncnc12` | -4.95% |
| `COc1cc(C)ccc1OCCC(=O)N1CCC(N2CC=CC2)C1` (configuration not stated) | 26.25% |
| `CC(C)COCCC(=O)NS(=O)(=O)c1ccc(Cl)s1` | -18.04% |
| `CCO[C@H]1COC[C@@H]1NC(=O)CCc1nc(-c2ccccc2)no1` | 16.97% |
| `[H][C@]12CN(Cc3ccccc3CC)CC[C@@]1(O)CCN(S(=O)(=O)N(C)C)C2` | 8.355% |
| `CCCS(=O)(=O)N1CCC2(CC1)COCCN(C(C)=O)C2` | 26.46% |
| `CCc1ccc(C(NC(=O)CN(C)S(C)(=O)=O)C(C)(C)C)o1` (configuration not stated) | 8.814% |
| `CS(=O)(=O)c1ccc(NC(=O)NC2(c3cccc(F)c3)CC2)cc1` | 11.9% |
| `Cc1ncc(CNC2CC(=O)N(CCc3ccc(F)cc3)C2)n1C` (configuration not stated) | -54.65% |
| `CCc1nc2n(n1)CCCC2Nc1nc(C(C)C)ns1` (configuration not stated) | 12.1% |
| `Cl.[H][C@@]12CCN(C3CCCC3)C[C@]1([H])[C@@H](c1ccsc1)CN2C(=O)C(C)(C)C` | 3.9% |
| `CC1(c2ccccc2)CCC(=O)N(CCN2CCCOC2=O)C1` (configuration not stated) | 13.92% |
| `CC(C)Nc1ncnc2c1CCN(C(=O)CCc1ccccc1)CC2` | 0.7885% |
| `CC(C)c1cc2c(s1)NC(c1ccccn1)NC2=O` (configuration not stated) | -1.811% |
| `COCCCn1ccc(NS(=O)(=O)c2cc(F)c(C)cc2F)n1` | -0.1443% |
| `CCCC(=O)N1CCCC1(C)c1nc(C)no1` (configuration not stated) | -2.626% |
| `CC(O)CNC(=O)CCc1nc2ncccc2[nH]1` (configuration not stated) | 0.6244% |
| `CC(c1ccccc1Cl)N1CCN(C(=O)c2ccc(=O)[nH]c2)CC1` (configuration not stated) | -60.31% |
| `CNc1nccnc1C1CCN(C(C)C)CC1` | -32.4% |
| `c1cc(-c2cnc(NC3CC3)nc2[C@@H]2CCCO2)ccn1` | -0.2493% |
| `CC(Cn1cncn1)NCCN1CCc2ccccc21` (configuration not stated) | 25.14% |
| `O=C(O)C(F)(F)F.[H][C@@]12COC[C@@H](CC(=O)N3CCCC3)[C@]1([H])CN(Cc1ccc(OC)cc1)C2` | 1.178% |
| `[H][C@@]12CN(S(=O)(=O)c3ccccc3)C[C@@]1([H])N(CCOC)C(=O)CO2` | -27.18% |
| `Cc1ccc(C2(O)CCN(C(=O)c3cccc(S(C)(=O)=O)c3)CC2)nc1` | 24.6% |
| `Cc1cc(N2CCOC(C(F)(F)F)C2)nc(-c2ccccc2O)n1` (configuration not stated) | 23.03% |
| `CC(C)c1nc(C2CCCN2C(=O)c2ccc(N(C)C)nn2)no1` (configuration not stated) | 12.51% |
| `Cc1cccc(CN2CCc3nnc(CN4CCCCC4)n3CC2)n1.O=C(O)C(F)(F)F.O=C(O)C(F)(F)F` | 5.64% |
| `CN(c1ccc(OCc2cnc(Cl)s2)cc1)S(C)(=O)=O` | 38.83% |
| `CC(C)c1ncncc1C(=O)N1CCN(Cc2cccnc2)CC1` | -0.855% |
| `O=C(Nc1ccccc1)C1CN(Cc2ccsc2)CC12CCOCC2.O=C(O)C(F)(F)F` (configuration not stated) | -13.05% |
| `CCCS(=O)(=O)N1CCC2(CC1)CC(=O)N(Cc1cc(F)cc(F)c1)C2` | 2.452% |
| `O=C(NCCN1CCC(c2cccs2)CC1)c1ccc(F)cc1Cl` | 17.47% |
| `CC[C@@H](Cn1ncc2ccccc2c1=O)NC(=O)c1cnc(C)cn1` | 1.364% |
| `O=C(O)C(F)(F)F.[H][C@]12C[C@@H](Cn3cncn3)N(C(C)C)[C@@]1([H])CCN(Cc1ccsc1)C2` | -21.59% |
| `CSCc1nc(CNC(=O)C2CCCN(CC(N)=O)C2)cs1` (configuration not stated) | 7.922% |
| `CC(=O)N1CCc2nc(N(C)C)nc(NCCc3ccccc3)c2CC1` | 9.291% |
| `CN(CC(N)=O)Cc1csc(-c2ccc(F)cc2)n1` | -0.7801% |
| `O=C(O)C(F)(F)F.[H][C@@]12CN(C(=O)c3cnoc3C)C[C@]1([H])C(=O)N(Cc1cccc(C)n1)C2` | 13.26% |
| `CC(CCn1cccn1)Nc1ccc(-c2nccn2C)nn1` (configuration not stated) | -22.18% |
| `CCCc1noc(CNc2ccc(C(=O)N3CCCC3)cc2C)n1` | -27.27% |
| `COCCCN1CC2(CCCN(c3ncc4nc[nH]c4n3)C2)CCC1=O` (configuration not stated) | 26.29% |
| `CCCC(=O)NCCc1nc2cc(-c3ccc(OC)cc3)ncn2n1` | 33.49% |
| `CNc1ncc(C(=O)N2CCC(CCc3ccccc3)CC2)cn1` | -31.02% |

9 of the entries, repeated:

{"compound": "Cc1csc2c(N3CCC(NCCCc4ccncc4)CC3)ncnc12", "Percent Effect": -4.95}
{"compound": "CNc1nccnc1C1CCN(C(C)C)CC1", "Percent Effect": -32.4}
{"compound": "Cc1ccc(C(=O)N2CCCN(C)c3ccc(F)cc32)o1", "Percent Effect": 40.3}
{"compound": "Cc1ncc(CNC2CC(=O)N(CCc3ccc(F)cc3)C2)n1C", "stereo": "configuration not stated", "Percent Effect": -54.65}
{"compound": "Cc1ccc(-c2nc(CNS(=O)(=O)N(C)C)[nH]c2-c2ccccn2)cc1", "Percent Effect": -4.789}
{"compound": "CS(=O)(=O)c1nnc(NC(=O)CCc2cc(F)ccc2F)[nH]1", "Percent Effect": 24.62}
{"compound": "Cc1cnn(CC2CCN(CC(O)CN3CCC(C)CC3)CC2)c1", "stereo": "configuration not stated", "Percent Effect": 29.38}
{"compound": "CC(C)COCCC(=O)NS(=O)(=O)c1ccc(Cl)s1", "Percent Effect": -18.04}
{"compound": "[H][C@]12CN(Cc3ccccc3CC)CC[C@@]1(O)CCN(S(=O)(=O)N(C)C)C2", "Percent Effect": 8.355}